Data as given in PubChem BioAssay AID1224826 (NIAID, 2016)
The deposit covers about 17,000 reagents; below is a part drawn at random. About 1,110 of all reagents (6.6%) were called active. 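Active means lowered or raised reporter signal; replicate intensities are raw and not normalised per plate.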 Entries without a mark were called inactive. Reagents against one gene are numbered here. No sequences are given here.

Aim: 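Knock-downs that raise or lower Tnf reporter signal after endotoxin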 (primary screen)
Cell system: RAW264.7 G9 macrophages from mouse bearing reporters for p65 (GFP) and the Tnf promoter (mCherry)
Reagent: siRNA pool against mouse genes, 100 nM
Time to read-out: 16 h of LPS stimulation, after 2 days of siRNA transfection
Treatment: bacterial lipopolysaccharide (Salmonella minnesota R595), 10 ng/ml
Detection: 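Nuclear mCherry signal of the Tnf promoter reporter measured by imaging after background removal, scaled to each plate median and turned into robust z-scores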
Direction: Tnf reporter robust z-score: higher = stronger Tnf promoter reporter signal after LPS; Tnf reporter intensity: higher = stronger Tnf promoter reporter signal
Hit rule: 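a well counts as active at a score of -1.3 or below (Tlr4 knock-down control median) or above 3 (raised signal); controls and wells holding fewer than 50 cells are excluded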
Meaning of the calls: active = Tnf reporter clearly lowered or raised; inactive = no clear change in Tnf reporter

The first 3 entries as a preview:
target gene | reagent no. | Tnf reporter robust z-score | fewer than 50 cells in well | Tnf reporter intensity, replicate 1 | Tnf reporter intensity, replicate 2
Usp44 | 1 | 1.27 | enough cells in well | 238 | 183
Acadl | 1 | -0.08 | enough cells in well | 148 | 160
Cobl | 1 | 0.35 | enough cells in well | 156 | 235

Results, from the start:
target gene | reagent no. | Tnf reporter robust z-score | fewer than 50 cells in well | Tnf reporter intensity, replicate 1 | Tnf reporter intensity, replicate 2
Usp44 | 1 | 1.27 | enough cells in well | 238 | 183
Acadl | 1 | -0.08 | enough cells in well | 148 | 160
Cobl | 1 | 0.35 | enough cells in well | 156 | 235
Snx2 | 1 | -0.64 | enough cells in well | 97.4 | 71.4
Syncrip | 1 | -0.79 | enough cells in well | 201 | 161
Dkk3 | 1 | -1.46 (active) | enough cells in well | 99.7 | 71.2
Metap1 | 1 | -0.82 | enough cells in well | 199 | 141
Ube2c | 1 | 0.56 | enough cells in well | 281 | 264
Rps6ka4 | 1 | – | fewer than 50 cells per well; well left out of calls | 64.3 | 102
Ttk | 1 | – | fewer than 50 cells per well; well left out of calls | 104 | 79.9
Tpmt | 1 | 0.27 | enough cells in well | 263 | 236
H2-Q10 | 1 | 0.52 | enough cells in well | 277 | 223
Acta2 | 1 | 0.38 | enough cells in well | 240 | 102
Acta2 | 2 | -0.72 | enough cells in well | 99.8 | 130
A030003K21Rik | 1 | – | fewer than 50 cells per well; well left out of calls | 157 | 178
G6pd2 | 1 | -2.06 (active) | enough cells in well | 86.6 | 34.1
Sncg | 1 | -0.88 | enough cells in well | 78.6 | 62.4
Zrsr2 | 1 | – | fewer than 50 cells per well; well left out of calls | 51.4 | 22.1
Psip1 | 1 | -1.24 | enough cells in well | 57.4 | 70.1
Btbd6 | 1 | 1.75 | enough cells in well | 34.4 | 264
Prxl2c | 1 | 0.61 | enough cells in well | 369 | 78.3
Crip1 | 1 | -0.79 | enough cells in well | 175 | 87.8
Tshb | 1 | -0.04 | enough cells in well | 308 | 75.9
Chek2 | 1 | 1.85 | enough cells in well | 317 | 257
9930111J21Rik2 | 1 | -0.74 | enough cells in well | 121 | 155
Zfp93 | 1 | -0.79 | enough cells in well | 118 | 61.3
A530095I07Rik | 1 | 0.44 | enough cells in well | 165 | 210
Pih1d2 | 1 | – | fewer than 50 cells per well; well left out of calls | 255 | 68.1
Tbc1d14 | 1 | -1.42 (active) | enough cells in well | 127 | 60.8
Zfp296 | 1 | 1.52 | enough cells in well | 193 | 183
Klhl12 | 1 | -1.19 | enough cells in well | 123 | 73.5
Raver2 | 1 | – | fewer than 50 cells per well; well left out of calls | 81.4 | 76.9
Cyp7b1 | 1 | 0.17 | enough cells in well | 220 | 243
Ppp1r3b | 1 | -0.32 | enough cells in well | 241 | 152
Tinag | 1 | 1.19 | enough cells in well | 158 | 137
Map2k5 | 1 | 0 | enough cells in well | 192 | 124
Usp39 | 1 | 1.29 | enough cells in well | 187 | 114
Rcan1 | 1 | -1.12 | enough cells in well | 149 | 124
Amdhd2 | 1 | -0.03 | enough cells in well | 154 | 158
Ccs | 1 | 0.72 | enough cells in well | 308 | 258
Picalm | 1 | 1.15 | enough cells in well | 335 | 272
Or5t15 | 1 | 0.32 | enough cells in well | 191 | 180
Cemip2 | 1 | -0.53 | enough cells in well | 97.3 | 106
Slc7a7 | 1 | 1.12 | enough cells in well | 276 | 213
Map1b | 1 | 2.08 | enough cells in well | 499 | 308
Stfa3 | 1 | 1.26 | enough cells in well | 159 | 127
Sirt1 | 1 | -1.2 | enough cells in well | 195 | 103
Adhfe1 | 1 | 0.85 | enough cells in well | 300 | 207
Ctsa | 1 | 1.19 | enough cells in well | 358 | 258
Defa1 | 1 | -1.3 (active) | enough cells in well | 117 | 82
Zik1 | 1 | 1.46 | enough cells in well | 170 | 204
Lage3 | 1 | -0.36 | enough cells in well | 249 | 36.6
Rpl7a | 1 | – | fewer than 50 cells per well; well left out of calls | 108 | 66.2
Fas | 1 | -0.75 | enough cells in well | 163 | 108
Emc9 | 1 | -1.12 | enough cells in well | 180 | 59.9
Zswim3 | 1 | -1.71 (active) | enough cells in well | 45.1 | 50.5
Coa6 | 1 | – | fewer than 50 cells per well; well left out of calls | 130 | 58.6
Gcnt1 | 1 | -0.69 | enough cells in well | 189 | 105
